Experimental data published in publication PMC9788671.
These are yes or no findings as the source states them, for the method shown. Binding seen in cells or lysates may run through a third protein. A yes stands for co-enrichment or nearness to the bait. Other partners may have been found.

Sequences of proteins named here, by UniProt entry; tags and fusion partners are left off.
UniProt Q9NZV8: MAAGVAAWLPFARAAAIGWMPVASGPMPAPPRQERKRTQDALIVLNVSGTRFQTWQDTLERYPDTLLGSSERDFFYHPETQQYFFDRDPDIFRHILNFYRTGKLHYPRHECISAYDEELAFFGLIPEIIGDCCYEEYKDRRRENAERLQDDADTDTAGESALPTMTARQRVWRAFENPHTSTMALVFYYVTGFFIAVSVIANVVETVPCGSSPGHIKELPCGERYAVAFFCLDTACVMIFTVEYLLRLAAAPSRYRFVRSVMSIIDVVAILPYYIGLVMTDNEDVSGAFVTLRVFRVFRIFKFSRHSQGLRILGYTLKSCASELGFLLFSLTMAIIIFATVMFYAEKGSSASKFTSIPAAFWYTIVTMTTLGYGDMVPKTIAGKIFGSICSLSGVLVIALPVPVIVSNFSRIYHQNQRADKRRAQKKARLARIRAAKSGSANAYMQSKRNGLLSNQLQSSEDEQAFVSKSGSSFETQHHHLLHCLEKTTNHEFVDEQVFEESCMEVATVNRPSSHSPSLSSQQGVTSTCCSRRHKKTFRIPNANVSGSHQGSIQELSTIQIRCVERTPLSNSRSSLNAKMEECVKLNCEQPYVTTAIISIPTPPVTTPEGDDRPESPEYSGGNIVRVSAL

Biological target: TAP-Kv4.2 (human) (UniProt Q9NZV8)
Experiment: affinity purification with mass spectrometry; TAP-Kv4.2 expressed by lentivirus in rat hippocampal neurons, harvested at DIV14; weak lysis buffer of the kit (0.1% NP-40); streptavidin resin, then calmodulin resin; gel cut into high and low molecular weight fragments; no MS of the control sample

B1: Slc25a13 (protein, UniProt F1LZW6 1-676)
chain: MAAAKVALTKRADPAELKAIFLKYASIEKNGEFFMSPHDFVTRYLNIFGESQPNPKTVELLSGVVDQTKDGLISFQEFVAFESVLCAPDALFMVAFQLFDKAGKGEVTFEDVRQVFGQTTIHQHIPFNWDSEFVQLHFGKERKRHLTYAEFTQFLLEIQLEHAKQAFVQRDNAKTGKVTAIDFRDIMVTIRPHVLTPFVEECLVAAAGGTRSHQVSFSYFNGFNSLLNNMELIRKIYSTLAGSRKDVEVTKEEFALAAQKFGQVTPMEVDILFQLADLYEPRGRMTLADIERIAPLEEGMLPFNLAEAQRQQKASGDAARPFLLQLAESAYRFGLGSIAGAVGATAVYPIDLVKTRMQNQRSTGSFVGELMYKNSFDCFKKVLRYEGFFGLYRGLLPQLLGVAPEKAIKLTVNDFVRDKFMHKDGSVPLLAEIFAGGCAGGSQVIFTNPLEIVKIRLQVAGEITTGPRVSALSVVRDLGFFGIYKGAKACFLRDIPFSAIYFPCYAHVKASFANEDGQVSPGSLLLAGAIAGMPAASLVTPADVIKTRLQVAARAGQTTYSGVTDCFRKILREEGPKALWKGAGARVFRSSPQFGVTLLTYELLQRWFYVDFGGVKPVGSELVPKSRITLPAPNPDHVGGYKLAVATFAGIENKFGLYLPLFKPSASTSKVTAVGS
With B1 the binding was “binds”.

B2: Pnpla8 (protein, UniProt D3ZRC4 1-776)
chain: MSINLTLDIYIYFLNNARSFCGKQRSKQLNFLCSKQYWRMNHVNVHREFHTSKKSCKWNRSEAHCSKHWHSSSNHGVHIGIVKLSTSAPKGLTKVSIHMSRIKSTLNSVSKAIFGSQNEMVSRLAQFKPSSRIFRKVSDRGWLKHKNVKQAIESLKNYSDKSAEKNSFAEQKSYFADKEEGSDKHSLYHYAYRITTRFGESFYFLANHINSYFKNKEKMSQIKEDRQLQDKPCLEESKSISPSPDILTDRPDSGPPLNVEDKLSSSTQLPEALPVSTKQSIANFLSRPTEGVQALVGGYIGGLVPKLKSDPKSQPEEEEEPSKTDEPICKDKKAEEKKRVLLQREKIIARVSIDNRTRALVQALRRTTDPKLCITRVEELTFHLLEFPEGKGVAVKEKIIPYLLRLRQIKDETLQAAVREILALIGYVDPVKGRGIRILAIDGGGTRGVVALQTLRKLVELTQKPIHQLFDYICGVSTGAILAFMLGLFHMPLDECEELYRKLGSDVFTQNVIVGTVKMSWSHAFYDSHTWEKILKDKVGSALMIETARDPLCPKVAAVSTIVNRGQTPKAFVFRNYGHFPGTNSHYLGGCQYKMWQAIRASSAAPGYFAEYALGNDLHQDGGLLLNNPSALALHECKCIWPDTPLECIVSLGTGRYESDVRNTTTYTSLKTKLSNVISSATDTEEVHIMLDGLLPADTYFRFNPVICENIPLDESRNEKLDQLQLEGMKYLERNDEKMKKLAKILSREKTTLQKISDWIKLKSDMYEGLPFFSKL
For B2, the binding was “binds”.

B3: Acad9 (protein, UniProt B1WC61 42-625)
chain: SFAKELFLGHIQQKGVFPFPEVSQEELSEINQFVGPLEKFFNEEVDSRKIDQEGKIPADTLAKLKSLGLFGIQVPEEYGGLGLSNTMYARLGEIISMDASITVTLAAHQAIGLKGIILVGNEEQKAKYLPKLSSGEHIAAFCLTEPASGSDAASIQTRATLSEDKKYFVLNGSKVWITNGGLANIFTVFAKTEVVDSDGSIKDKMTAFIVERDFGGITNGKPEDKLGIRGSNTCEVHFENTRVPVENVLGEVGGGFKVAMNILNSGRFSMGSAVAGMLKKLIEQTAEYACTRKQFNRNLSEFGLIQEKFALMAQKAYVMESMAYLTSGMLDQPGFPDCSIEAAMVKVFSSEAAWQCVSEALQILGGSGYMKDYPYERMLRDARILLIFEGTNEILRLFIALTGLQHAGRILTSRIKELKSGNVTTVMETIGRKLRDSLGRTVDLGLSSNIAVVHPSLGDSANKLEENVHYFGRTVETLLLRFGKTIVEEQLVLKRVANILINLYGMTAVLSRASRSIRIGLKNHDHEILLANMFCVEAYFQNLFSLSQLDKYAPENLDEQIKKVSQQILEKRAYICAHPLDRAS
With B3 the binding was “binds”.
